# Values from PubChem BioAssay AID1259405 (NCATS, 2018)
# Aim: 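Silenced genes that increase secreted GFP made by CHO cells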 (primary screen)
# Cell system: Chinese hamster CHO-K1 ovary cells with stable secreted eGFP expression
# Reagent: single siRNA against mouse genes, 0.8 pmol siRNA per well (2 µl of 400 nM stock)
# Duration: 3 days
# Read-out: 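Percent of the per-plate non-targeting control median for intracellular GFP per well by laser scanning cytometry and for cell viability by ATP luminescence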
# Reading the numbers: GFP, % of control: higher = more GFP per well, higher productivity; viability (ATP), % of control: higher = more viable cells (more ATP)
# Active means: 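Called active when intracellular GFP, relative to negative control, is at or above 120%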
# This is one part, drawn at random, of about 50,000 deposited reagents. About 4,000 of all reagents (8%) were called active. 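Mouse siRNA library applied to hamster cells; one well for each siRNA.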 Reagents against one gene are numbered here.
target gene,siRNA no.,"GFP, % of control","viability (ATP), % of control",activity call
Drgx (dorsal root ganglia homeobox),1,105,76.3,inactive
Drgx (dorsal root ganglia homeobox),2,71.7,69.7,inactive
Drgx (dorsal root ganglia homeobox),3,58,96.1,inactive
Inhbb (inhibin beta-B),1,54.5,45.9,inactive
Inhbb (inhibin beta-B),2,58.8,64.7,inactive
Inhbb (inhibin beta-B),3,74.3,72.3,inactive
"Tnfrsf22 (tumor necrosis factor receptor superfamily, member 22)",1,98.1,80.8,inactive
"Tnfrsf22 (tumor necrosis factor receptor superfamily, member 22)",2,95.7,80.6,inactive
"Tnfrsf22 (tumor necrosis factor receptor superfamily, member 22)",3,75.8,81.1,inactive
"Rbmy (RNA binding motif protein, Y chromosome)",1,50.8,59.3,inactive
"Rbmy (RNA binding motif protein, Y chromosome)",2,81.5,71.4,inactive
"Rbmy (RNA binding motif protein, Y chromosome)",3,79.2,93.3,inactive
4930433I11Rik (RIKEN cDNA 4930433I11 gene),1,87.1,58.8,inactive
4930433I11Rik (RIKEN cDNA 4930433I11 gene),2,156,71.5,active
4930433I11Rik (RIKEN cDNA 4930433I11 gene),3,45.1,55.7,inactive
Aprt (adenine phosphoribosyl transferase),1,102,115,inactive
Aprt (adenine phosphoribosyl transferase),2,45.6,70,inactive
"Rhd (Rh blood group, D antigen)",1,121,68.5,active
"Rhd (Rh blood group, D antigen)",2,65.4,82.2,inactive
"Rhd (Rh blood group, D antigen)",3,82,72.5,inactive

2 entries from above, set out differently.
target gene | siRNA no. | GFP, % of control | viability (ATP), % of control | activity call
Drgx (dorsal root ganglia homeobox) | 3 | 58 | 96.1 | inactive
Inhbb (inhibin beta-B) | 1 | 54.5 | 45.9 | inactive

The list goes on:
target gene,siRNA no.,"GFP, % of control","viability (ATP), % of control",activity call
"Cacnb4 (calcium channel, voltage-dependent, beta 4 subunit)",1,86.7,80,inactive
"Cacnb4 (calcium channel, voltage-dependent, beta 4 subunit)",2,56,59,inactive
"Cacnb4 (calcium channel, voltage-dependent, beta 4 subunit)",3,59.3,70.1,inactive
Ccnt2 (cyclin T2),1,131,71.6,active
Ccnt2 (cyclin T2),2,65.8,68.3,inactive
Ccnt2 (cyclin T2),3,111,114,inactive
Cd47,1,69,78.1,inactive
Cd47,2,61.6,69.2,inactive
Cd47,3,81.7,65.4,inactive
Cfap61 (cilia and flagella associated protein 61),1,86.5,80.7,inactive
Cfap61 (cilia and flagella associated protein 61),2,84.3,46.5,inactive
Cfap61 (cilia and flagella associated protein 61),3,69.1,88.8,inactive
Gm4425 (predicted gene 4425),1,122,118,active
Gm4425 (predicted gene 4425),2,65.5,57.4,inactive
Gm4425 (predicted gene 4425),3,81.8,86.6,inactive
